This passage reports binding result and Kd results from publication PMC6344896.

Chains of the proteins cited; added tags and fusions are not shown. Residues count along the entry.
UniProt Q15717, 1-186: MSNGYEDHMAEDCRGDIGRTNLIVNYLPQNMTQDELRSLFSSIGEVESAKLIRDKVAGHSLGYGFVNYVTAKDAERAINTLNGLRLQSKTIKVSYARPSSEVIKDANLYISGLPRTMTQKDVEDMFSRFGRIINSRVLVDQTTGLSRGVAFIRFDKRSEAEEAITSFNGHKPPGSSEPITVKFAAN
UniProt Q15717, whole entry W261E: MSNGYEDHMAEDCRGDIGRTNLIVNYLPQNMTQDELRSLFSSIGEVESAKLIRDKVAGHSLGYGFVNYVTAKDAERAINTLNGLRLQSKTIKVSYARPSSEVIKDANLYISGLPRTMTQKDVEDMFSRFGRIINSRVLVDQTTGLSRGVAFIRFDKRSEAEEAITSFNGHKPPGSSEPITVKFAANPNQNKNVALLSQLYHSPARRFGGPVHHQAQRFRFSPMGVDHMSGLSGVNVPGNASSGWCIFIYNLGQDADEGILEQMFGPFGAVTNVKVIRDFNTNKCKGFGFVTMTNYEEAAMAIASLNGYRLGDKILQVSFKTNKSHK

For series [1], the target named is HuR RRM1,2 (human) (UniProt Q15717). Briefly: NMR. Conditions: 1:1.1; NMR: 20 mM sodium phosphate pH 7.0, 200 mM NaCl, 5 mM DTT, 1 mM EDTA, 298 K; recombinant protein; residues 1-186; protein details: pETM11 His6, cleaved.
For series [2] the target is unchanged. Briefly: ITC. Conditions: n=0.9; ITC: 50 mM sodium phosphate pH 7.0, 200 mM NaCl, 2 mM beta-mercaptoethanol, 298 K; recombinant protein; residues 1-186; protein details: pETM11 His6, cleaved.
For series [3], the target named is HuR W261E (human) (UniProt Q15717). Briefly: SEC-SAXS. Conditions: more compact when bound; recombinant protein; residues 1-326; protein details: untagged (tag cleaved). For orientation: In gel filtration, larger molecules generally elute earlier.

The exact form of at least one protein or probe is not confirmed. For part of these data: At least one verdict rests on a figure or table, not on a statement of the authors.

As to AUUUUUAUUUUA [AU12], in series [1], the binding result was “binds”.
As to AUUUUUAUUUUAUUUUU [AU17], in series [2], the Kd (commonly the constant that tells how readily two partners part at equilibrium) was 215 nM. Further, in series [3], the binding result is “binds”.
